Measured values as given in patent publication US20240066037A1 (priority 2020, published 2024).
For at least one compound, name, drawing or mass did not settle the structure.

Test system: SARS-CoV-2 (βCoV/KOR/KCDC03/2020)
Assay type: cell-based

Compound: CCC(CC)COC(=O)[C@H](C)N[P@](=O)(OC[C@H]1O[C@@](C#N)(c2ccc3c(N)ncnn23)[C@H](O)[C@@H]1O)Oc1ccccc1 [Remdesivir]
- SARS-CoV-2 activity in Calu-3 cells, expression of N protein: reduced the expression of N protein
